# Test results taken from PubChem BioAssay AID294 (DTP/NCI, 2004).
# The list shows only some results of the screen, not a fair sample: it gathers tests that were run many times, whatever their T/C, doses with no T/C, and many T/C values between a quarter and a half above the control. Further doses and runs are listed elsewhere. T/C: endpoint of the treated group in % of that of the vehicle group. Schedule codes are those of the source, read here as Q, the interval in days (D) or hours (H), X, the number of doses. Some T/C values carry the count of animals alive at the toxicity check (mostly the fifth day); where none is given, no animal had died by that day. Some entries give survivors of the animals treated and no T/C: the source files T/C as zero there, which appears to mark a toxic dose or a test without result, not a measured value. Counts of survivors are from the toxicity check (mostly the fifth day) where no day follows; animals may have died later. Some doses were run more than once; the results are listed from low to high.
# Tested on: MX-1 breast xenograft, nude mice, tumor weight change
# Assay: NCI In Vivo Anticancer Drug Screen. Data for tumor model Human Mammary Carcinoma MX-1 Xenograft (subcutaneous) in NU/NU Swiss (nude) mice
# Details: T/C endpoint: optimum tumor weight change, higher T/C = larger tumour
# Experimental: The antitumor activity of compounds was measured in mice bearing transplantable tumors. Survival or tumor size were measured and the results are expressed as the measurement made in the treated group (T) divided by the measurement made in the vehicle treated control group (C). The tumor model used in this assay is Human Mammary Carcinoma MX-1 Xenograft (subcutaneous) in NU/NU Swiss (nude) mice
# [1] = dose: 200.0 mg/kg/injection, schedule: Q04DX003 (ip), vehicle: saline
# [2] = dose: 200.0 mg/kg/injection, schedule: Q04DX003 (ip), vehicle: saline with Tween-80
# [3] = dose: 100.0 mg/kg/injection, schedule: Q04DX003 (ip), vehicle: Klucel (hydroxypropylcellulose) (HPC)
# [4] = dose: 200.0 mg/kg/injection, schedule: Q04DX003 (ip), vehicle: Klucel (hydroxypropylcellulose) (HPC)
# [5] = dose: 40.0 mg/kg/injection, schedule: Q04DX003 (ip), vehicle: Klucel (hydroxypropylcellulose) (HPC)
# [6] = dose: 2.0 mg/kg/injection, schedule: Q04DX003 (ip), vehicle: saline
# [7] = dose: 4.0 mg/kg/injection, schedule: Q04DX003 (ip), vehicle: saline
# [8] = dose: 400.0 mg/kg/injection, schedule: Q04DX003 (ip), vehicle: Klucel (hydroxypropylcellulose) (HPC)
# [9] = dose: 400.0 mg/kg/injection, schedule: Q04DX003 (ip), vehicle: saline
# [10] = dose: 100.0 mg/kg/injection, schedule: Q04DX003 (ip), vehicle: saline
# [11] = dose: 8.0 mg/kg/injection, schedule: Q04DX003 (ip), vehicle: saline
# [12] = dose: 16.0 mg/kg/injection, schedule: Q04DX003 (ip), vehicle: saline
structure (smiles),measurement,setting,value
Oc1ccc(O)cc1,T/C,"dose: 25.0 mg/kg/injection, schedule: Q04DX003 (ip), vehicle: saline, evaluated on day 39",139 % of control
same,T/C,"dose: 50.0 mg/kg/injection, schedule: Q04DX003 (ip), vehicle: saline, evaluated on day 39",129 % of control [4 of 5 alive on day 39]
same,survivor count,[1],0 of 5 on day 39
O=C1N(Cl)C(=O)C(c2ccc(Cl)cc2)(c2ccc(Cl)cc2)N1Cl,survivor count,[2],3 of 5 on day 35
same,survivor count,"dose: 400.0 mg/kg/injection, schedule: Q04DX003 (ip), vehicle: saline with Tween-80",1 of 5 on day 35
same,survivor count,"dose: 800.0 mg/kg/injection, schedule: Q04DX003 (ip), vehicle: saline with Tween-80",0 of 5 on day 35
COc1cc(NS(C)(=O)=O)ccc1Nc1c2ccccc2nc2ccccc12,survivor count,"dose: 16.0 mg/kg/injection, schedule: Q04DX003 (ip), vehicle: saline + alcohol",3 of 5 on day 35
same,survivor count,"dose: 32.0 mg/kg/injection, schedule: Q04DX003 (ip), vehicle: saline + alcohol",0 of 5 on day 35
same,survivor count,"dose: 64.0 mg/kg/injection, schedule: Q04DX003 (ip), vehicle: saline + alcohol",0 of 5 on day 35
CCOC(=O)C1C2OC(=O)C(C(=O)C2CN(CCCl)CCCl)C1C1CC=C(CC2=CCC(C3C4C(=O)OC(C(CN(CCCl)CCCl)C4=O)C3C(=O)OCC)CC2)CC1 (centres undefined),survivor count,[3],2 of 5 on day 40 and 3 of 5 on day 36
same,survivor count,[4],0 of 5 on day 36 and 0 of 5 on day 40
N/C(=N\O)c1cn(C2OC(CO)C(O)C2O)c2ncnc(N)c12 (centres undefined),survivor count,[5],0 of 5 on day 38
OC(C1CO1)C(O)C1CO1 (centres undefined),survivor count,[6],2 of 5 on day 40
same,survivor count,[7],0 of 5 on day 40
CC(=O)OCC1OC(n2cc(CBr)nn2)C(OC(C)=O)C(OC(C)=O)C1OC(C)=O (centres undefined),survivor count,[2],3 of 5 on day 36
CC(=O)OCC(=O)[C@@]12OC(C)(C)O[C@@H]1C[C@H]1[C@@H]3CC(C=O)=C4C=C(OCCCl)CC[C@]4(C)[C@@]3(F)[C@@H](O)C[C@@]12C,survivor count,[3],1 of 5 on day 35
same,survivor count,[4],0 of 5 on day 35
same,survivor count,[8],0 of 5 on day 35
Nc1cc2[nH]cnc2c(=O)[nH]1,survivor count,[9],3 of 5 on day 36
OCC1OC(n2cnc3c2NC=NC[C@H]3O)CC1O (some centres undefined),survivor count,"dose: 32.0 mg/kg/injection, schedule: Q04DX003 (ip), vehicle: water",2 of 5 on day 36
CO[C@H]1C[C@](C)(O)Cc2cc3c(c(O)c21)C(=O)c1c(O)cc2c(c1C3=O)O[C@@H]1O[C@@]2(C)[C@H](O)[C@@H](N(C)C)[C@@H]1O,T/C,"dose: 25.0 mg/kg/injection, schedule: Q04DX003 (ip), vehicle: other, evaluated on day 34",133 % of control
same,T/C,"dose: 25.0 mg/kg/injection, schedule: Q04DX003 (ip), vehicle: other, evaluated on day 40",147 % of control
same,survivor count,"dose: 50.0 mg/kg/injection, schedule: Q04DX003 (ip), vehicle: other",0 of 5 on day 40
same,survivor count,"dose: 100.0 mg/kg/injection, schedule: Q04DX003 (ip), vehicle: other",0 of 5 on day 40
OCC1OC(n2cnc3cncnc32)C(O)C1O (centres undefined),survivor count,[10],0 of 5 on day 40
COc1cc([C@@H]2c3cc4c(c(O)c3C[C@H]3COC(=O)[C@@H]32)OCO4)cc(OC)c1OC,survivor count,"dose: 20.0 mg/kg/injection, schedule: Q04DX003 (ip), vehicle: saline",2 of 5 on day 35
C[n+]1c(-c2cccc3ccccc23)c2cc(N)ccc2c2ccccc21,survivor count,"dose: 0.75 mg/kg/injection, schedule: Q04DX003 (ip), vehicle: saline",3 of 5 on day 37
same,survivor count,"dose: 12.0 mg/kg/injection, schedule: Q04DX003 (ip), vehicle: saline",3 of 5 on day 35
NC(Cc1ccc(N(CCCl)CCCl)cc1)C(=O)O (centres undefined),survivor count,"dose: 20.0 mg/kg/injection, schedule: Q04DX003 (ip), vehicle: Klucel (hydroxypropylcellulose) (HPC)",0 of 5 on day 36 and 1 of 5 on day 36
same,survivor count,[5],0 of 5 on day 36
C=C(C)[C@H]1Cc2c(ccc3c2O[C@@H]2COc4cc(OC)c(OC)cc4[C@@H]2C3=O)O1,survivor count,"dose: 6.25 mg/kg/injection, schedule: Q04DX003 (ip), vehicle: saline",3 of 5 on day 35
COc1cccc2c1C(=O)c1c(O)c3c(c(O)c1C2=O)C[C@@](O)(C(=O)CO)C[C@@H]3OC1CC(N)C(O)C(C)O1 (some centres undefined),survivor count,"dose: 5.0 mg/kg/injection, schedule: Q07DX004 (iv), vehicle: saline",5 of 10
same,survivor count,"dose: 8.0 mg/kg/injection, schedule: Q04DX003 (ip), vehicle: water","0 of 5 on day 34, 0 of 5 on day 35, 2 of 5 on day 35"
COc1cccc2c1C(=O)c1c(O)c3c(c(O)c1C2=O)C[C@@](O)(/C(C)=N\O)C[C@@H]3OC1CC(N)C(O)C(C)O1 (some centres undefined),survivor count,"dose: 50.0 mg/kg/injection, schedule: Q04DX003 (ip), vehicle: saline",0 of 5 on day 36
same,survivor count,[10],0 of 5 on day 36
same,survivor count,[1],0 of 5 on day 36
CN(C)N=Nc1ccccc1,survivor count,[3],3 of 5 on day 36
same,survivor count,[4],0 of 5 on day 36
Nc1nc(N)c2cc(CNc3ccc(C(=O)NC(CC(=O)O)CC(=O)O)cc3)ccc2n1,survivor count,[4],1 of 5 on day 40
same,survivor count,[8],1 of 5 on day 40
CC(C)CCCCCCCCCCCCC(=O)NCC(=O)NC1C(C)OC(Nc2ncnc3nc[nH]c23)C(O)C1O (centres undefined),survivor count,"dose: 6.25 mg/kg/injection, schedule: Q04DX003 (ip), vehicle: distilled water + Tween-80",0 of 5 on day 40
same,survivor count,"dose: 12.5 mg/kg/injection, schedule: Q04DX003 (ip), vehicle: distilled water + Tween-80",2 of 5 on day 40
same,survivor count,"dose: 25.0 mg/kg/injection, schedule: Q04DX003 (ip), vehicle: distilled water + Tween-80",0 of 5 on day 40
C=CC(=O)N1CN(C(=O)C=C)CN(C(=O)C=C)C1,survivor count,"dose: 25.0 mg/kg/injection, schedule: Q04DX003 (ip), vehicle: saline with Tween-80",0 of 5 on day 35
same,survivor count,"dose: 50.0 mg/kg/injection, schedule: Q04DX003 (ip), vehicle: saline with Tween-80",0 of 5 on day 35
same,survivor count,"dose: 100.0 mg/kg/injection, schedule: Q04DX003 (ip), vehicle: saline with Tween-80",0 of 5 on day 35
N[C@@H](Cc1ccc(N(CCCl)CCCl)cc1)C(=O)O,survivor count,[7],3 of 5 on day 40
same,survivor count,[11],0 of 5 on day 40
same,survivor count,[12],0 of 5 on day 40
same,survivor count,"dose: 16.0 mg/kg/injection, schedule: Q04DX003 (ip), vehicle: suspension in saline",0 of 5 on day 40
O=[N+]([O-])/C=C\c1ccc2c(c1)OCO2,T/C,"dose: 100.0 mg/kg/injection, schedule: Q04DX003 (ip), vehicle: Klucel (hydroxypropylcellulose) (HPC), evaluated on day 34",128 % of control
same,survivor count,[8],3 of 5 on day 36
O=CC(S)CO (centres undefined),survivor count,[10],1 of 5 on day 39
same,survivor count,[9],3 of 5 on day 39
same,survivor count,"dose: 800.0 mg/kg/injection, schedule: Q04DX003 (ip), vehicle: saline",3 of 5 on day 39
CN(C)N=Nc1cccc(C(N)=O)c1,T/C,"dose: 50.0 mg/kg/injection, schedule: Q04DX003 (ip), vehicle: Klucel (hydroxypropylcellulose) (HPC), evaluated on day 39",140 % of control
same,survivor count,[3],2 of 5 on day 39
same,survivor count,[4],0 of 5 on day 39 and 1 of 5 on day 39
same,survivor count,[8],0 of 5 on day 39
COc1cccc2c1C(=O)c1c(O)c3c(c(O)c1C2=O)C[C@@](O)(C(C)=O)C[C@@H]3OC1CC(N)C(O)C(C)O1 (some centres undefined),survivor count,[6],3 of 5 on day 36
same,survivor count,[7],0 of 5 on day 36
same,survivor count,[11],0 of 5 on day 36
Cc1c(N)nc(C(CC(N)=O)NCC(N)C(N)=O)nc1C(=O)NC(C(=O)NC(C)C(O)CC(=O)NC(C(=O)NC(OC1OC(C)C(N)C(O)C1O)C(O)c1nc(-c2nc(C(=O)NCCCC(N)CC(=O)NCCCNCCCCN)cs2)cs1)C(C)O)C(OC1OC(CO)C(O)C(O)C1OC1OC(CO)C(O)C(OC(N)=O)C1O)c1cnc[nH]1 (centres undefined),survivor count,[12],2 of 5 on day 34
same,survivor count,"dose: 32.0 mg/kg/injection, schedule: Q04DX003 (ip), vehicle: saline",0 of 5 on day 34
